# PubChem BioAssay
# The inconclusive results got no clear call from the source; some entries with a clear call stand among them for comparison. For some of these results: Where the call is inconclusive, the potency comes from a doubtful curve fit. Activity calls are given as the source filed them. Unless noted, cut-off not given; nearly all actives show AC50 up to about 26 µM.
# Tests used:
# [1] = growth inhibition of DIPG glioma cells, dose response, cell-based, SU-DIPG-XVII, MIPE5.0, CellTiter-Glo, qHTS (AID 1347060); conditions: SU-DIPG-XVII viability, CellTiter-Glo ATP luminescence;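 on AC50: cells exposed to compound for 48 hours before viability readout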
# [2] = growth inhibition of DIPG glioma cells, dose response, cell-based, SU-DIPG-XIII, MIPE5.0, CellTiter-Glo, qHTS (AID 1347064; cut-off not given, nearly all actives have AC50 up to about 23 µM;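 on AC50: cells exposed to compound for 48 hours before the viability read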); conditions: SU-DIPG-XIII viability, CellTiter-Glo ATP luminescence
# [3] = viability loss in pontine glioma line – cell-based, SU-DIPG-XXV, MIPE5.0, CellTiter-Glo, qHTS, dose response (AID 1347065); conditions: CellTiter-Glo ATP luminescence;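 further: cells exposed to compound for 48 hours before ATP readout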
# [4] = JHH-DIPG-1 glioma cell viability, MIPE5.0 library, CellTiter-Glo luminescence, qHTS (AID 1347067); conditions: JHH-DIPG-1 glioma viability, CellTiter-Glo ATP luminescence;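 further: cells exposed to compound for 48 hours before readout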
# [5] = SU-DIPG-VI glioma cell viability, MIPE4.0 library, CellTiter-Glo luminescence, qHTS (AID 1347066; cut-off not given, nearly all actives have AC50 up to about 30 µM;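 further: cells exposed to compound for 48 hours before readout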); conditions: CellTiter-Glo ATP luminescence
# [6] = SU-DIPG-XXV glioma cell viability, MIPE5.0 library, qHTS (AID 1347068; cut-off not given, nearly all actives have IC50 up to about 30 µM)
structure (smiles),measurement,setting,value
O=c1c(-c2ccc(O)cc2)coc2c([C@@H]3O[C@H](CO)[C@@H](O)[C@H](O)[C@H]3O)c(O)ccc12,outcome,[1],inactive
same,AC50,[2],inconclusive: 0.166 µM [cytotoxic]
CCN1C(=O)CNc2ncc(-c3ccc(-c4ncn[nH]4)nc3C)nc21,AC50,[1],inconclusive: 5.25 µM [cytotoxic]
same,AC50,[2],active: 4.17 µM
CCN(C)S(=O)(=O)Nc1ccc(F)c(C(=O)c2c[nH]c3ncc(-c4cnc(C5CC5)nc4)cc23)c1F,AC50,[1],active: 14.8 µM
same,AC50,[2],inconclusive: 10.5 µM [cytotoxic]
same,AC50,[3],active: 7.42 µM
COCCOC(=O)N1CCN(S(=O)(=O)c2cc(F)c(Oc3ccc(Cl)cc3)c(F)c2)C(C(=O)NO)C1 (centres undefined),outcome,[1],inactive
same,AC50,[2],inconclusive: 37.2 µM [cytotoxic]
same,AC50,[3],inconclusive: 26.3 µM [cytotoxic]
N#CN1CCC[C@@H](n2nc(-c3ccc(Oc4ccc(F)cc4F)cc3)c(C(N)=O)c2N)C1,AC50,[1],inconclusive: 18.6 µM [cytotoxic]
same,AC50,[2],inconclusive: 0.00105 µM
same,AC50,[3],inconclusive: 20.9 µM [cytotoxic]
N[C@@H](CCC(=O)O)C(=O)N[C@@H](Cc1c[nH]c2ccccc12)C(=O)O,outcome,[1],inactive
same,AC50,[2],inconclusive: 0.00331 µM
O=C(NO)C1(CS(=O)(=O)c2ccc(Oc3ccc(Cl)cc3)cc2)CCOCC1,outcome,[1],inactive
same,AC50,[2],inconclusive: 14.8 µM [cytotoxic]
same,AC50,[3],inconclusive: 18.6 µM [cytotoxic]
COc1ccc2c(C(=S)N(C)CC(=O)O)cccc2c1C(F)(F)F,outcome,[1],inactive
same,outcome,[2],inactive
same,AC50,[3],inconclusive: 0.118 µM
O=c1oc2c(C3OCCCO3)c(O)ccc2c2c1CNCC2,AC50,[1],inconclusive: 16.6 µM [cytotoxic]
same,AC50,[2],inconclusive: 8.33 µM [cytotoxic]
same,outcome,[3],inactive
Cc1ccc(NC(=O)c2ccc(CN3CCNCC3)cc2)cc1Nc1nccc(-c2cccnc2)n1,AC50,[1],inconclusive: 33.2 µM [cytotoxic]
same,AC50,[2],inconclusive: 20.9 µM [cytotoxic]
C[C@@H]1O[C@@H](O[C@@H]2\C=C/C=C\C=C/C=C\C[C@H](C)OC(=O)/C=C\[C@H]3O[C@@H]3C[C@H](O)C[C@]3(O)C[C@@H](O)[C@@H](C(=O)O)[C@H](C2)O3)[C@H](O)[C@H](N)[C@@H]1O,outcome,[1],inactive
same,outcome,[2],inactive
same,AC50,[3],inconclusive: 0.00118 µM [cytotoxic]
c1ccc(CNCc2ccc(CN3CCCNCCNCCCNCC3)cc2)nc1,AC50,[1],inconclusive: 26.3 µM [cytotoxic]
same,outcome,[2],inactive
same,outcome,[3],inactive
Nc1cc(COc2c(Cl)cc(C[C@H](N)C(=O)O)cc2Cl)c2oc(-c3ccccc3)nc2c1,outcome,[1],inactive
same,AC50,[2],inconclusive: 3.32 µM
same,outcome,[3],inactive
COc1ccc2c(c1)C(c1ccc(F)cc1)=C(CN1CCCC1)CO2,AC50,[1],inconclusive: 37.2 µM [cytotoxic]
same,AC50,[2],inconclusive: 0.0132 µM [cytotoxic]
same,AC50,[3],inconclusive: 26.3 µM [cytotoxic]
Cc1ccc(NC(=O)[C@H]2CCCN(C(=O)c3c(C)cccc3F)[C@H]2c2ccc(NC3CCCC3)cc2)cc1C(F)(F)F,AC50,[1],inconclusive: 18.6 µM [cytotoxic]
same,outcome,[2],inactive
Cn1cc(-c2nc(N[C@@H]3CCCC[C@@H]3N)c(F)c3c2C(=O)NC3)cn1,outcome,[1],inactive
same,outcome,[2],inactive
same,AC50,[3],inconclusive: 2.63 µM [cytotoxic]
CC(C)NC(=O)N1CC[C@H](N=C2Nc3cc(F)ccc3N(CC(F)F)c3ccc(Cl)cc32)C1,outcome,[1],inactive
same,outcome,[2],inactive
same,AC50,[3],inconclusive: 8.87 µM
Nc1nccc2c1ncn2[C@@H]1C=C(CO)[C@@H](O)[C@H]1O,AC50,[1],inconclusive: 4.17 µM [cytotoxic]
same,outcome,[2],inactive
same,outcome,[3],inactive
COc1ccc(CNC(=O)c2cc(-c3cncc(Cl)c3)cnc2-c2ccccn2)nc1OC,AC50,[1],inconclusive: 23.5 µM [cytotoxic]
same,AC50,[2],inconclusive: 23.5 µM [cytotoxic]
same,outcome,[3],inactive
O=C([O-])C[O-].[Pt+2],outcome,[1],inactive
same,AC50,[2],inconclusive: 0.00209 µM [cytotoxic]
CN(CCOc1ccc(-c2ccc3c(c2)OCO3)cc1C(C)(C)C)CC(=O)O,AC50,[1],inconclusive: 33.2 µM [cytotoxic]
same,AC50,[2],inconclusive: 0.0742 µM [cytotoxic]
same,AC50,[3],inconclusive: 16.6 µM [cytotoxic]
COCCOc1ccc(N2CCN(CCn3ncc4c3nc(N)n3nc(-c5ccco5)nc43)CC2)cc1,AC50,[1],inconclusive: 14.8 µM [cytotoxic]
same,AC50,[2],inconclusive: 0.372 µM [cytotoxic]
same,AC50,[3],inconclusive: 0.00105 µM [cytotoxic]
COc1ccc(COc2ccc(Cc3cnc(N)nc3N)cc2OC)cc1,AC50,[1],inconclusive: 20.9 µM [cytotoxic]
same,AC50,[2],inconclusive: 37.2 µM [cytotoxic]
same,outcome,[3],inactive
CCCN1CCN(c2ccc(C(=O)NC3(C(=O)NCC#N)CCCCC3)cc2)CC1,outcome,[1],inactive
same,outcome,[2],inactive
same,AC50,[3],inconclusive: 10.5 µM
O=C(Cc1ccccc1)Nc1nnc(CCSCCc2nnc(NC(=O)Cc3ccccc3)s2)s1,outcome,[1],inactive
same,AC50,[2],inconclusive: 0.00118 µM
CC(C)n1c(=O)cc(N[C@@H](C)c2ccccc2)[nH]c1=O,AC50,[1],inconclusive: 16.6 µM [cytotoxic]
same,AC50,[2],active: 9.34 µM
Nc1ncnc2c1C(=O)N(c1ccc(C3CCC(CC(=O)O)CC3)cc1)CCO2 (centres undefined),outcome,[1],inactive
same,AC50,[2],inconclusive: 0.0263 µM [cytotoxic]
COc1ccc(-n2cnc3cc(C(=O)N4CCCCC4)ccc32)cc1,AC50,[1],inconclusive: 37.2 µM [cytotoxic]
same,outcome,[2],inactive
same,outcome,[3],inactive
O=C1OC(COc2ccccc2[N+](=O)[O-])CC1Cc1ccccc1 (centres undefined),AC50,[1],inconclusive: 11.8 µM [cytotoxic]
same,outcome,[2],inactive
same,outcome,[3],inactive
Cc1c(F)cc(C(=O)NC2CC2)cc1-c1c(F)cn2c(C(C)(C)C)nnc2c1F,outcome,[1],inactive
same,AC50,[2],inconclusive: 26.3 µM [cytotoxic]
same,outcome,[3],inactive
C[C@]12CCCN1CC1=NNC(=O)c3cc(F)cc4[nH]c2c1c34,AC50,[1],inconclusive: 16.6 µM [cytotoxic]
same,AC50,[2],inconclusive: 14.8 µM [cytotoxic]
O=C(NC[C@H](O)CN1CCc2ccccc2C1)c1ccnc(NC2CCC2)c1,AC50,[1],inconclusive: 3.32 µM [cytotoxic]
same,outcome,[2],inactive
same,outcome,[3],inactive
NCCOc1cc(C(=O)Nc2cc(OCCN)c3ccccc3n2)nc(C(=O)Nc2cc(OCCN)c3ccccc3n2)c1,AC50,[1],inconclusive: 37.2 µM [cytotoxic]
same,AC50,[2],inconclusive: 29.5 µM [cytotoxic]
same,AC50,[3],inconclusive: 26.3 µM [cytotoxic]
same,AC50,[4],inconclusive: 16.6 µM [cytotoxic]
CONC(=O)Nc1ccc(-c2sc3c(c2CN(C)Cc2ccccc2)c(=O)n(-c2ccccc2)c(=O)n3Cc2c(F)cccc2F)cc1,outcome,[1],inactive
same,outcome,[2],inactive
same,AC50,[3],inconclusive: 37.2 µM [cytotoxic]
same,AC50,[4],inconclusive: 18.6 µM [cytotoxic]
CN(CCO)C1CCN(c2ccc(Nc3ncc4c5ccnc(F)c5n(C5CCCC5)c4n3)nc2)CC1,AC50,[1],inconclusive: 0.323 µM [cytotoxic]
same,AC50,[2],inconclusive: 4.07 µM [cytotoxic]
same,AC50,[3],inconclusive: 0.0574 µM [cytotoxic]
same,AC50,[4],inconclusive: 16.2 µM [cytotoxic]
Cc1cc(C)cc(Oc2ccc(CNC(=O)[C@H](C)N)cc2C)c1,AC50,[1],inconclusive: 33.2 µM [cytotoxic]
same,AC50,[2],active: 26.3 µM
same,AC50,[3],active: 18.6 µM
same,AC50,[4],inconclusive: 26.3 µM [cytotoxic]
CC(=O)N1CCN(c2ccc(NC(=O)Cc3cnc(-c4ccnc(F)c4)c(C)c3)nc2)CC1,outcome,[1],inactive
same,AC50,[2],inconclusive: 0.00105 µM
same,outcome,[3],inactive
same,outcome,[4],inactive
Nc1nccc(-c2c(-c3ccc(F)cc3)ncn2C2CCN(Cc3ccon3)CC2)n1,AC50,[1],inconclusive: 23.5 µM [cytotoxic]
same,AC50,[2],inconclusive: 5.25 µM [cytotoxic]
same,outcome,[3],inactive
N=C1S/C(=C\c2ccc(-c3ccc4c(c3)C(=O)NC4=O)o2)C(=O)N1c1ccc(Br)cc1,AC50,[1],inconclusive: 16.2 µM [cytotoxic]
same,AC50,[2],inconclusive: 4.56 µM [cytotoxic]
same,AC50,[3],inconclusive: 3.62 µM [cytotoxic]
same,outcome,[5],inactive
same,AC50,[4],inconclusive: 4.07 µM [cytotoxic]
same,outcome,[6],inactive
Cn1cc(-c2ccc3c(c2)CCN3C(=O)Cc2cccc(C(F)(F)F)c2)c2c(N)ncnc21,outcome,[1],inactive
same,outcome,[2],inactive
same,AC50,[3],inconclusive: 37.2 µM [cytotoxic]
same,outcome,[4],inactive
CC[C@H](Nc1ncnc2nc[nH]c12)c1oc2ccccc2c(=O)c1-c1cccc(F)c1,outcome,[1],inactive
same,AC50,[2],inconclusive: 20.9 µM [cytotoxic]
same,AC50,[3],inconclusive: 29.5 µM [cytotoxic]
same,AC50,[4],inconclusive: 29.5 µM [cytotoxic]
CC(=O)C1CCC2C3CCC4=CC(=O)CCC4(C)C3CCC12C (centres undefined),outcome,[1],inactive
same,AC50,[2],inconclusive: 18.6 µM [cytotoxic]
same,AC50,[3],inconclusive: 2.63 µM [cytotoxic]
same,outcome,[4],inactive
Cn1cc(-c2ccc(F)c(C(F)(F)F)c2)nc1C1CCN(c2ncnc3[nH]ncc23)CC1,outcome,[1],inactive
same,AC50,[2],inconclusive: 1.48 µM [cytotoxic]
same,outcome,[3],inactive
same,AC50,[4],inconclusive: 9.34 µM [cytotoxic]
CC#CC(=O)N1CC[C@@H](n2c(=O)n(-c3ccc(Oc4ccccc4)cc3)c3c(N)ncnc32)C1,AC50,[1],inconclusive: 37.2 µM [cytotoxic]
same,AC50,[2],inconclusive: 0.209 µM
same,outcome,[3],inconclusive
same,AC50,[4],inconclusive: 20.9 µM [cytotoxic]
C#C[C@]1(O)CC[C@H]2[C@@H]3[C@H](C)CC4=C(CCC(=O)C4)[C@H]3CC[C@@]21C,AC50,[1],inconclusive: 59 µM [cytotoxic]
same,outcome,[2],inactive
same,outcome,[3],inactive
same,AC50,[4],inconclusive: 5.25 µM [cytotoxic]

# Random excerpt: 5 records from the list
structure (smiles),measurement,setting,value
O=C(NO)C1(CS(=O)(=O)c2ccc(Oc3ccc(Cl)cc3)cc2)CCOCC1,AC50,[3],inconclusive: 18.6 µM [cytotoxic]
N=C1S/C(=C\c2ccc(-c3ccc4c(c3)C(=O)NC4=O)o2)C(=O)N1c1ccc(Br)cc1,outcome,[6],inactive
Nc1cc(COc2c(Cl)cc(C[C@H](N)C(=O)O)cc2Cl)c2oc(-c3ccccc3)nc2c1,AC50,[2],inconclusive: 3.32 µM
COCCOC(=O)N1CCN(S(=O)(=O)c2cc(F)c(Oc3ccc(Cl)cc3)c(F)c2)C(C(=O)NO)C1 (centres undefined),outcome,[1],inactive
CC(C)n1c(=O)cc(N[C@@H](C)c2ccccc2)[nH]c1=O,AC50,[1],inconclusive: 16.6 µM [cytotoxic]
